This is an account of results in article doi:10.1101/2020.04.16.045708 (bioRxiv, 2020).

Assay in all cases: pull-down
Assay [1] concerns the target T1, C9ORF72 alone, bait of the pull-down (human), Q96LT7.
T1 chain: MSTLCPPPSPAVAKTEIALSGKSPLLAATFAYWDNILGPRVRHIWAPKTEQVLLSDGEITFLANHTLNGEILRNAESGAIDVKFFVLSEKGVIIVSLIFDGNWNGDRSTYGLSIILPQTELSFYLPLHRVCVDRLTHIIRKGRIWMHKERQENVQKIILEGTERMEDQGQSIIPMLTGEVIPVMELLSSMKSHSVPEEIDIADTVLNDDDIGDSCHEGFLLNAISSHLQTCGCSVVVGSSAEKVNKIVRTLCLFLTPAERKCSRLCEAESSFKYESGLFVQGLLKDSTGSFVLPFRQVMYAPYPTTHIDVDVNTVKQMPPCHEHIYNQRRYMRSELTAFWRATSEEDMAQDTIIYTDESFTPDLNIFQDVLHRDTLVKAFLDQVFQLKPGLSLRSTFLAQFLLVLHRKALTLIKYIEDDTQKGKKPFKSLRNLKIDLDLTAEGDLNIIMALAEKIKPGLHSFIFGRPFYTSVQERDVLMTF
The conditions noted are these: remark: other sources report otherwise.

The target of assay [2] is T2, SMCR8^Longin alone, bait of the pull-down (human) (UniProt Q8TEV9).
T2 sequence: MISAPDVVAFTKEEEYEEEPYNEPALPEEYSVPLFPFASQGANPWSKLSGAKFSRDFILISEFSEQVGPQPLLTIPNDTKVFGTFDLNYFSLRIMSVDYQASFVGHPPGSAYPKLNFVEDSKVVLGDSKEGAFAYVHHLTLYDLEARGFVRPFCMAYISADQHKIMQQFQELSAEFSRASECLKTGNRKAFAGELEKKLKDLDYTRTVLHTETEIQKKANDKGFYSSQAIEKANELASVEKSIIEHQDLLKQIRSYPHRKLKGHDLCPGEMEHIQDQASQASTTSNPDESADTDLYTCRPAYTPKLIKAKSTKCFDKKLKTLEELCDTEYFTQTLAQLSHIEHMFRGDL

For assay [3], the target named is T3, C9ORF72 alone, bait of the pull-down (human) (UniProt Q96LT7).
T3 sequence: T1 chain

These are yes or no findings as the source states them, for the method shown.

B1: WDR41 (WD40 repeat-containing protein 41), Q9HAD4 1-459 (protein)
chain: MLRWLIGGGREPQGLAEKSPLQTIGEEQTQNPYTELLVLKAHHDIVRFLVQLDDYRFASAGDDGIVVVWNAQTGEKLLELNGHTQKITAIITFPSLESCEEKNQLILTASADRTVIVWDGDTTRQVQRISCFQSTVKCLTVLQRLDVWLSGGNDLCVWNRKLDLLCKTSHLSDTGISALVEIPKNCVVAAVGKELIIFRLVAPTEGSLEWDILEVKRLLDHQDNILSLINVNDLSFVTGSHVGELIIWDALDWTMQAYERNFWDPSPQLDTQQEIKLCQKSNDISIHHFTCDEENVFAAVGRGLYVYSLQMKRVIACQKTAHDSNVLHVARLPNRQLISCSEDGSVRIWELREKQQLAAEPVPTGFFNMWGFGRVSKQASQPVKKQQENATSCSLELIGDLIGHSSSVEMFLYFEDHGLVTCSADHLIILWKNGERESGLRSLRLFQKLEENGDLYLAV
B1: the binding result in assay [1] is “no binding (tested: 20 μM)”.

B2: WDR41 (WD40 repeat-containing protein 41) (natural protein)
chain: B1 chain
B2: in assay [2], the binding entry was “no binding (tested: 20 μM)”.

B3: WDR41^ΔC (domain or fragment, UniProt Q9HAD4 1-435)
chain: MLRWLIGGGREPQGLAEKSPLQTIGEEQTQNPYTELLVLKAHHDIVRFLVQLDDYRFASAGDDGIVVVWNAQTGEKLLELNGHTQKITAIITFPSLESCEEKNQLILTASADRTVIVWDGDTTRQVQRISCFQSTVKCLTVLQRLDVWLSGGNDLCVWNRKLDLLCKTSHLSDTGISALVEIPKNCVVAAVGKELIIFRLVAPTEGSLEWDILEVKRLLDHQDNILSLINVNDLSFVTGSHVGELIIWDALDWTMQAYERNFWDPSPQLDTQQEIKLCQKSNDISIHHFTCDEENVFAAVGRGLYVYSLQMKRVIACQKTAHDSNVLHVARLPNRQLISCSEDGSVRIWELREKQQLAAEPVPTGFFNMWGFGRVSKQASQPVKKQQENATSCSLELIGDLIGHSSSVEMFLYFEDHGLVTCSADHLIILWKNGE
Consider B3, for which the binding entry in assay [3] and in assay [2] was “no binding (tested: 20 μM)” each time.
